± gives the standard deviation of the averaged measurements. The list shows a part of the results, in another mix than the full data.
Compound: Nc1ncnc2c1ncn2[C@@H]1O[C@H](COP(=O)(O)OP(=O)(O)NP(=O)(O)O)[C@@H](O)[C@H]1O [adenylyl imidodiphosphate]
Experiment: NP40-soluble protein abundance relative to vehicle (solubility fold change) (ratio); higher = more soluble protein in presence of AMP-PNP
Procedure, shortened: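 Each value is a fold change relative to the detergent-processed vehicle, calculated per replicate from vsn-normalised intensities. Jurkat crude lysate received eight concentrations (0.1 to 10 mM) for 10 min at room temperature and 3 min at 37 °C, then was solubilised in 0.8% NP40 with benzonase (60 min, 4 °C). The ultracentrifuged supernatant was TMT-labelled and run by LC-MS/MS in three independent experiments.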

By UniProt entry, the sequences of proteins in these tests, tags left out. Where a name states a change or a piece, a line headed by the entry shows the natural chain unless it says otherwise.
UniProt Q96GY3: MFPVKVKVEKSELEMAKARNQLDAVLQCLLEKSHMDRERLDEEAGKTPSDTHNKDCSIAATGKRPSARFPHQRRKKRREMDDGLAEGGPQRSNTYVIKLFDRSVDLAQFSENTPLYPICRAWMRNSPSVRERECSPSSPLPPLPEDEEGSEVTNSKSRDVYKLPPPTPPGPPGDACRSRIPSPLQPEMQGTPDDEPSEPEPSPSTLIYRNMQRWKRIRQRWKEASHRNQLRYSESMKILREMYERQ
UniProt Q92997: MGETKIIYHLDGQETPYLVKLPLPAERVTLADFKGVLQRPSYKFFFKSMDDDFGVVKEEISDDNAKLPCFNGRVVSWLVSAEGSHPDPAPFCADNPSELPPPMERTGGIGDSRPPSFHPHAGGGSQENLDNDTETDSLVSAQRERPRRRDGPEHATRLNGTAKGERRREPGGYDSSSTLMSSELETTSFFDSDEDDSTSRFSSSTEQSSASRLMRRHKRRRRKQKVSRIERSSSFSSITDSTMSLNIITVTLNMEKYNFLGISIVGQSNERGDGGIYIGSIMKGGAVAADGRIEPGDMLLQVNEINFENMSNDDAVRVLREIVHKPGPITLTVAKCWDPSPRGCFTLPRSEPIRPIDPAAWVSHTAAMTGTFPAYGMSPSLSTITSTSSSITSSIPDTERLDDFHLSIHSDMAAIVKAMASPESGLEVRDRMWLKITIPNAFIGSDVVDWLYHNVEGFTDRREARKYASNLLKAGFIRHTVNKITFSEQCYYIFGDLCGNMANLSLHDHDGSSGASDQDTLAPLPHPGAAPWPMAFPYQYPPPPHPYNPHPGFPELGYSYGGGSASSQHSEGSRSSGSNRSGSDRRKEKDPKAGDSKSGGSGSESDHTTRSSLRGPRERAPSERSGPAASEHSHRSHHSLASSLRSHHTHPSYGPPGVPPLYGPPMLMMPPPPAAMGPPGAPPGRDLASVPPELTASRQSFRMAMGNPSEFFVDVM
UniProt Q96EX1: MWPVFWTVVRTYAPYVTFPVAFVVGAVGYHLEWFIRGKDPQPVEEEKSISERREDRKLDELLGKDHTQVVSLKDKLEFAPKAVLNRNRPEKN
UniProt Q96D31, whole entry, looked up: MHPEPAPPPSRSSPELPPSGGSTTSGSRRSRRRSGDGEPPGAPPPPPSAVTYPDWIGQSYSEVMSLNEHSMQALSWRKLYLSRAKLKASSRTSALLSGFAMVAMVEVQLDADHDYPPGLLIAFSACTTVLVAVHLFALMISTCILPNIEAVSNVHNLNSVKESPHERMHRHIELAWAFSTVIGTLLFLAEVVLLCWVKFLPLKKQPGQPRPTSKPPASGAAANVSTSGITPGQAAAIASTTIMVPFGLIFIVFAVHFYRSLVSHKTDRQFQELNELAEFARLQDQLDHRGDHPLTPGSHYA
UniProt Q96Q11: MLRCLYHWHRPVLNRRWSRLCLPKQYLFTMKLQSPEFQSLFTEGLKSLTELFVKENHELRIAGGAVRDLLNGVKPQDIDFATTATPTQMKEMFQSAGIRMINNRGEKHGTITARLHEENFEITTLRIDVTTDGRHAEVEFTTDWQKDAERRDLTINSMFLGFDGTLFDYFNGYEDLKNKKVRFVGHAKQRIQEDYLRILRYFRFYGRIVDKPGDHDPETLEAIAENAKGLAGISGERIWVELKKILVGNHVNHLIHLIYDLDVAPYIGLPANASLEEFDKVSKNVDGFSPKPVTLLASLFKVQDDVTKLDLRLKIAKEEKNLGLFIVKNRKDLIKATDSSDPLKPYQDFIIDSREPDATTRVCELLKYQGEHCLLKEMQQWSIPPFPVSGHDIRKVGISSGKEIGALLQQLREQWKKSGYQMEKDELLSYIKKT
UniProt Q969G6: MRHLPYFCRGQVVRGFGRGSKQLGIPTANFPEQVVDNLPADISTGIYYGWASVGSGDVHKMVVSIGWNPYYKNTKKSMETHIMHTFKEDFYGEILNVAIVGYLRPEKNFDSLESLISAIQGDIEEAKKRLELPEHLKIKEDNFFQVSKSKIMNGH
UniProt Q93009, whole entry, looked up: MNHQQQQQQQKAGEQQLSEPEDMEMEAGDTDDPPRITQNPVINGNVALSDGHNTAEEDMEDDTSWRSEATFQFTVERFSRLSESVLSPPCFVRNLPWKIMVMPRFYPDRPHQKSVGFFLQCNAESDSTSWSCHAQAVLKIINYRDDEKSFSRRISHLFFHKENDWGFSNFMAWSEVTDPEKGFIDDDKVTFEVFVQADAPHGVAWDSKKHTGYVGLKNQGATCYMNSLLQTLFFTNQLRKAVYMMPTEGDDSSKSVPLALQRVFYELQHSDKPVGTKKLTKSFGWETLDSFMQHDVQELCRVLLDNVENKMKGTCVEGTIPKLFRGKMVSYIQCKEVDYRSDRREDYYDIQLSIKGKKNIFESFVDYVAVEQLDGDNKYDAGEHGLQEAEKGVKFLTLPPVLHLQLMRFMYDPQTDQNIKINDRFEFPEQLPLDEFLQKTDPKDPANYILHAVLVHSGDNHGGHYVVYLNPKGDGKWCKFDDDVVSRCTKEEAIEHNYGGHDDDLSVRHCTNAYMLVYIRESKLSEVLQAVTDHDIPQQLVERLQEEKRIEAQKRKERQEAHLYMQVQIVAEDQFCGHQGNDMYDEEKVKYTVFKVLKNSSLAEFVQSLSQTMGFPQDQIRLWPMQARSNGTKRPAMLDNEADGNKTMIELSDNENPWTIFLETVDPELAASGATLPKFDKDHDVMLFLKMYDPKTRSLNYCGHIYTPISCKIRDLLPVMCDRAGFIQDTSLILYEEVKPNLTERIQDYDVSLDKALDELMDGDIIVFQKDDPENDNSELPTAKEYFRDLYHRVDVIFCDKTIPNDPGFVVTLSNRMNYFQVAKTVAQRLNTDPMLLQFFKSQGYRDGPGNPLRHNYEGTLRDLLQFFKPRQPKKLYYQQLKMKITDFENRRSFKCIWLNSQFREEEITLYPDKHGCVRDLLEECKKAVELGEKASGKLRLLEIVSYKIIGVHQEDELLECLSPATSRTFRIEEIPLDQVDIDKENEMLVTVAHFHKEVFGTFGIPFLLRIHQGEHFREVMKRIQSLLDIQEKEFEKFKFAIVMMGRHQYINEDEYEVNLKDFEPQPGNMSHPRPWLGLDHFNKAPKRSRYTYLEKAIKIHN
UniProt Q96PU4: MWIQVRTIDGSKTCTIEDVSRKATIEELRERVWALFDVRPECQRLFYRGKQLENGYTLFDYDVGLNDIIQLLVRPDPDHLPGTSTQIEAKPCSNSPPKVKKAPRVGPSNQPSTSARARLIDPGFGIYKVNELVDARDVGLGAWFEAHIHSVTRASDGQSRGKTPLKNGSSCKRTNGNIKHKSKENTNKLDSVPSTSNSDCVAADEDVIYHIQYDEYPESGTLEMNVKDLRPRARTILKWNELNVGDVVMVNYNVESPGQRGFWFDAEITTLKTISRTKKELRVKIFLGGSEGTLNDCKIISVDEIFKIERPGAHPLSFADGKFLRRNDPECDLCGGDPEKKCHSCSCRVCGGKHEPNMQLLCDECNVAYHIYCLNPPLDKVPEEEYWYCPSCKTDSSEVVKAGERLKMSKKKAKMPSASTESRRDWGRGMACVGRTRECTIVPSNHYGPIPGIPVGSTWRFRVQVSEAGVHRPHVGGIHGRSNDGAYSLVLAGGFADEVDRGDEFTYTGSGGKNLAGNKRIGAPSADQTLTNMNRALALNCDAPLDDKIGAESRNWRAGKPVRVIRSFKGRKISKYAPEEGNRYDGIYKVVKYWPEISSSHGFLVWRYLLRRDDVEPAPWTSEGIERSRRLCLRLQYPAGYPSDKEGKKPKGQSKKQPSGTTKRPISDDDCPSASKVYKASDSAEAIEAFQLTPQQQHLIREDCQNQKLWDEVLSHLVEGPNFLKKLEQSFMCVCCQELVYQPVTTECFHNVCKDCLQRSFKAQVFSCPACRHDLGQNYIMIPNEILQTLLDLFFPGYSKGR
UniProt Q96LJ7: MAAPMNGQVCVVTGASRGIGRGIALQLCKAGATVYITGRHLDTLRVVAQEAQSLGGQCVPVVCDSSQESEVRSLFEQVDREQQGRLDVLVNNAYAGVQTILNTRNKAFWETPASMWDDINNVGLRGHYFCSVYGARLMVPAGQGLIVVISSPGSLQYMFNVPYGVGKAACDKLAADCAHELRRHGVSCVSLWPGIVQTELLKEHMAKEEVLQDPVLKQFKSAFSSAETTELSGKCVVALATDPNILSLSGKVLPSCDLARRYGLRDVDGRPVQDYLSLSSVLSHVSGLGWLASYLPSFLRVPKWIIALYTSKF
UniProt Q96CS3: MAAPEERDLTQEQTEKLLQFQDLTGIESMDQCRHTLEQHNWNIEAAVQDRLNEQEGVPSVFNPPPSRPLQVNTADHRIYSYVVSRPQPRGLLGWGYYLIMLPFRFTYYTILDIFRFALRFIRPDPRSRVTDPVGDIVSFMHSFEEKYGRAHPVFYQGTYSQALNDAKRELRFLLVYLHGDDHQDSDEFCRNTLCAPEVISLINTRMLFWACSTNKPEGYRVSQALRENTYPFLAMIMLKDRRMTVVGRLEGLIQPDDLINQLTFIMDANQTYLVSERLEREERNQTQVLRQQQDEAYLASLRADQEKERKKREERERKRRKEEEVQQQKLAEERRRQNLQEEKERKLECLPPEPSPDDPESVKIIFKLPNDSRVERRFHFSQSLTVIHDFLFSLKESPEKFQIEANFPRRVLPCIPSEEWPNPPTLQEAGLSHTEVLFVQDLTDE
UniProt Q96JJ7: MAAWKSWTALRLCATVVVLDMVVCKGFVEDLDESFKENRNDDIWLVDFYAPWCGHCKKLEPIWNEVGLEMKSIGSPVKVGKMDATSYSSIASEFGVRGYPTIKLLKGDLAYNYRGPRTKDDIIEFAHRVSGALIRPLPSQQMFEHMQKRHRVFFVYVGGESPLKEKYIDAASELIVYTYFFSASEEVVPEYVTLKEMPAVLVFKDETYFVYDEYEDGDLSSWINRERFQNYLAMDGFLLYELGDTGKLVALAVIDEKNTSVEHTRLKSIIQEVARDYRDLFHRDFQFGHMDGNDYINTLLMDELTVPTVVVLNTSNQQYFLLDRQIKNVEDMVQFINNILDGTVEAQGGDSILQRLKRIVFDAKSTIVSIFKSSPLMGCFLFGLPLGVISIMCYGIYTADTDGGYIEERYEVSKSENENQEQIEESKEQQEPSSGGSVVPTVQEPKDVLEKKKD
UniProt Q96A47: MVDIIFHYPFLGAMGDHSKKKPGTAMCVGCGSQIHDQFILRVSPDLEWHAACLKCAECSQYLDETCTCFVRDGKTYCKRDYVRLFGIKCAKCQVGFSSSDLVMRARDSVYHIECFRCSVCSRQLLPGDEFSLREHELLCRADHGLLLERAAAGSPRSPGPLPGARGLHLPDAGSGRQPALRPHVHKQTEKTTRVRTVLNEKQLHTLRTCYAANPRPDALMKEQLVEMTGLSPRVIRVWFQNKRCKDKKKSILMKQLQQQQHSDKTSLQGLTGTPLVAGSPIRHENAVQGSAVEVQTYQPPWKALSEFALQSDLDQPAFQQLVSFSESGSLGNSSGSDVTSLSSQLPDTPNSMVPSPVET
UniProt Q96BD8: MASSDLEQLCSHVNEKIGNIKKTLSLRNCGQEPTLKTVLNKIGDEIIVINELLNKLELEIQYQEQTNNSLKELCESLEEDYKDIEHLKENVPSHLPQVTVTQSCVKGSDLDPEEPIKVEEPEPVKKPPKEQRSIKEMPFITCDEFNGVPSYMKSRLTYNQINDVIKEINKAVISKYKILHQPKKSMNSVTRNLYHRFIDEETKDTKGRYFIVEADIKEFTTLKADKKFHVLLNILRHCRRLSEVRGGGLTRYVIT
UniProt Q96CS2: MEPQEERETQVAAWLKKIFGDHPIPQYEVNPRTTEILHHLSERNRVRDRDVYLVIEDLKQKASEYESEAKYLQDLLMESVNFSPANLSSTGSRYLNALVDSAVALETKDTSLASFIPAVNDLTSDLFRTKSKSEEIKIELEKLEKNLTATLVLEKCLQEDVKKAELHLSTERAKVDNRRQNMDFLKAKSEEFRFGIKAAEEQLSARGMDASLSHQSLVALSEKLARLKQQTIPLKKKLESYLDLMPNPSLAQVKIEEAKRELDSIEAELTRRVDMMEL
UniProt Q93052: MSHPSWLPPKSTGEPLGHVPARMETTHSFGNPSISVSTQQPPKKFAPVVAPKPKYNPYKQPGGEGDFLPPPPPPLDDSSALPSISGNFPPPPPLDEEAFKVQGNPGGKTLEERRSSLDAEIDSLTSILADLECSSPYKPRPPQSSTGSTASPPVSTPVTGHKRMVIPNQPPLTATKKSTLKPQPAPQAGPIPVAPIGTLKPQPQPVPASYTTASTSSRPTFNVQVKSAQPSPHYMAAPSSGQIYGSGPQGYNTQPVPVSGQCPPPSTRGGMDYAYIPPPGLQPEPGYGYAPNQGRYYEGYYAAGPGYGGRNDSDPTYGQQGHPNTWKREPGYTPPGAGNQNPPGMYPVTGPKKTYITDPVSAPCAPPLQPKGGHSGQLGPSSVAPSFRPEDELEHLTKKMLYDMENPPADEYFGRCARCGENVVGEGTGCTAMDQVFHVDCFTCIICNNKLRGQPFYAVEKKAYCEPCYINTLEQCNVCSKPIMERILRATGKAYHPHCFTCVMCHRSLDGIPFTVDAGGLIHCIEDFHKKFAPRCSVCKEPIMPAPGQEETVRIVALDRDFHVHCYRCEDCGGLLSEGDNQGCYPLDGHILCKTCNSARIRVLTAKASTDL

Target	NP40-soluble protein abundance (concentration: 1mM)	NP40-soluble protein abundance (concentration: 2mM)	NP40-soluble protein abundance (concentration: 4mM)	NP40-soluble protein abundance (concentration: 6mM)	NP40-soluble protein abundance (concentration: 8mM)	NP40-soluble protein abundance (concentration: 10mM)
UniProt Q96DI7 and related entries	0.98 ± 0.031	1.01 ± 0.054	1.04 ± 0.07	1.1 ± 0.023	1.12 ± 0.035	1.19 ± 0.093
UniProt Q96CP6 and related entries	1.02 ± 0.031	1.02 ± 0.018	1.01 ± 0.032	1.02 ± 0.048	1.018 ± 0.0049	1.01 ± 0.053
UniProt Q96JP5 and related entries	1.01 ± 0.017	1.05 ± 0.03	1.01 ± 0.021	1.04 ± 0.068	0.987 ± 0.057	1.01 ± 0.046
ANKRD27 (UniProt Q96NW4)	1.01 ± 0.024	1 ± 0.042	1.02 ± 0.05	0.986 ± 0.028	0.962 ± 0.019	0.97 ± 0.021
LIN37 (UniProt Q96GY3)	0.969 ± 0.029	1 ± 0.047	0.994 ± 0.034	1.012 ± 0.0094	1.02 ± 0.026	0.998 ± 0.041
UniProt Q92997 and related entries	1.03 ± 0.019	1.03 ± 0.059	1.01 ± 0.015	1 ± 0.038	0.995 ± 0.048	0.996 ± 0.02
MRPL38 (UniProt Q96DV4)	0.977 ± 0.13	0.984 ± 0.11	0.965 ± 0.13	0.956 ± 0.17	0.939 ± 0.14	0.923 ± 0.17
UniProt Q969M7 and related entries	1.02 ± 0.074	1.05 ± 0.019	1.01 ± 0.091	0.9346 ± 0.0047	0.958 ± 0.042	0.894 ± 0.071
LENG1 (UniProt Q96BZ8)	1.05 ± 0.018	1.12 ± 0.052	1.12 ± 0.053	1.11 ± 0.044	1.11 ± 0.048	1.1 ± 0.071
UniProt Q96JM3	1.07 ± 0.044	1.16 ± 0.039	1.16 ± 0.014	1.21 ± 0.069	1.23 ± 0.057	1.29 ± 0.037
UniProt Q96HD1 and related entries	0.999 ± 0.026	1.04 ± 0.042	1.02 ± 0.032	1 ± 0.012	0.99 ± 0.048	1.01 ± 0.023
ATG2B (UniProt Q96BY7)	0.969 ± 0.044	0.97 ± 0.065	0.956 ± 0.075	0.974 ± 0.011	0.9529 ± 0.0028	1.062 ± 0.0098
DUS3L (UniProt Q96G46)	1.02 ± 0.011	1.03 ± 0.017	1.02 ± 0.022	1.01 ± 0.035	0.99 ± 0.044	1.01 ± 0.052
UniProt Q96JG8 and related entries	1.01 ± 0.04	0.992 ± 0.053	0.991 ± 0.034	0.988 ± 0.044	1 ± 0.027	0.977 ± 0.031
VCPIP1 (UniProt Q96JH7)	1.02 ± 0.022	0.99 ± 0.05	0.993 ± 0.024	0.967 ± 0.038	0.946 ± 0.024	0.948 ± 0.043
UniProt Q96MG7	0.966 ± 0.035	1.01 ± 0.022	0.957 ± 0.049	0.934 ± 0.034	0.961 ± 0.024	0.912 ± 0.041
UniProt Q96EX1	0.944 ± 0.021	1.05 ± 0.11	0.899 ± 0.017	0.976 ± 0.018	0.879 ± 0.011	0.948 ± 0.079
UniProt Q96EM0	0.9928 ± 0.0018	1.022 ± 0.0049	0.999 ± 0.024	1.01 ± 0.026	1.0296 ± 0.0006	1.02 ± 0.021
UniProt Q96D31 and related entries	1 ± 0.041	0.992 ± 0.029	1.01 ± 0.026	1.01 ± 0.02	1.05 ± 0.018	1.01 ± 0.045
UniProt Q96IX5	1 ± 0.019	1.06 ± 0.081	1.03 ± 0.043	1.09 ± 0.038	1.141 ± 0.006	1.14 ± 0.035

Target	NP40-soluble protein abundance (concentration: 1mM)	NP40-soluble protein abundance (concentration: 2mM)	NP40-soluble protein abundance (concentration: 4mM)	NP40-soluble protein abundance (concentration: 6mM)	NP40-soluble protein abundance (concentration: 8mM)	NP40-soluble protein abundance (concentration: 10mM)
UniProt Q96Q11 and related entries	1.02 ± 0.022	1.02 ± 0.051	1.036 ± 0.0085	1.06 ± 0.045	1.06 ± 0.051	1.05 ± 0.07
ZNF830 (UniProt Q96NB3)	1.05 ± 0.023	1.11 ± 0.015	1.06 ± 0.03	1.04 ± 0.031	1.04 ± 0.051	1.04 ± 0.049
ATAD5 (UniProt Q96QE3)	1.03 ± 0.026	1.05 ± 0.046	1.08 ± 0.028	1.08 ± 0.031	1.08 ± 0.022	1.12 ± 0.045
RFK (UniProt Q969G6)	1 ± 0.033	0.9725 ± 0.0077	0.953 ± 0.034	0.978 ± 0.021	0.956 ± 0.016	0.935 ± 0.033
UniProt Q96AG3 and related entries	0.995 ± 0.024	0.9971 ± 0.0097	0.99 ± 0.035	1 ± 0.023	0.991 ± 0.041	1.018 ± 0.0096
USP7 (UniProt Q93009)	0.999 ± 0.01	0.917 ± 0.09	0.974 ± 0.021	0.959 ± 0.028	0.978 ± 0.018	0.949 ± 0.042
SMARCE1 (UniProt Q969G3)	1.01 ± 0.019	1.13 ± 0.12	1.07 ± 0.072	1.23 ± 0.088	1.16 ± 0.08	1.17 ± 0.084
UHRF2 (UniProt Q96PU4)	1.01 ± 0.025	0.997 ± 0.048	0.986 ± 0.038	0.927 ± 0.038	0.886 ± 0.08	0.885 ± 0.07
UniProt Q96BX8	0.982 ± 0.026	0.942 ± 0.032	0.96 ± 0.059	0.935 ± 0.013	0.969 ± 0.022	0.9107 ± 0.0078
AIDA (UniProt Q96BJ3)	1.02 ± 0.012	1.01 ± 0.032	0.993 ± 0.013	0.995 ± 0.021	0.97 ± 0.022	0.978 ± 0.056
SIPA1 (UniProt Q96FS4)	1.01 ± 0.037	1.013 ± 0.003	1.03 ± 0.025	1.05 ± 0.029	1.03 ± 0.036	1.04 ± 0.02
UniProt Q96KP4 and related entries	1.02 ± 0.03	1.03 ± 0.029	1 ± 0.045	1.06 ± 0.05	0.99 ± 0.057	1.027 ± 0.0078
RILPL2 (UniProt Q969X0)	0.9862 ± 0.0081	0.982 ± 0.046	0.97 ± 0.04	0.948 ± 0.026	0.945 ± 0.026	0.943 ± 0.034
DHRS1 (UniProt Q96LJ7)	1 ± 0.027	0.9851 ± 0.0044	1.01 ± 0.026	1 ± 0.012	1 ± 0.034	0.971 ± 0.024
FAF2 (UniProt Q96CS3)	0.979 ± 0.022	0.979 ± 0.026	1.01 ± 0.015	0.988 ± 0.031	0.9613 ± 0.0095	0.974 ± 0.017
ZNF48 (UniProt Q96MX3)	1.015 ± 0.0097	1.062 ± 0.0052	1.05 ± 0.033	1.06 ± 0.028	1.06 ± 0.017	1.12 ± 0.059
UniProt Q96JJ7	0.991 ± 0.033	0.942 ± 0.057	0.994 ± 0.011	1 ± 0.043	1.02 ± 0.018	1.02 ± 0.028
ISL2 (UniProt Q96A47)	1.01 ± 0.024	1 ± 0.029	1.02 ± 0.03	0.991 ± 0.017	0.99 ± 0.047	0.974 ± 0.028
DNAJA3 (UniProt Q96EY1)	1.02 ± 0.039	1.02 ± 0.077	0.993 ± 0.023	0.949 ± 0.056	0.942 ± 0.034	1.01 ± 0.081
UniProt Q96KG9 and related entries	1.01 ± 0.071	0.954 ± 0.012	0.98 ± 0.028	0.9928 ± 0.0091	1 ± 0.019	0.974 ± 0.036

Single entries from above.
In NP40-soluble protein abundance (concentration: 2mM), SIPA1 (UniProt Q96FS4) shows 1.013 ± 0.003
In NP40-soluble protein abundance (concentration: 10mM), RFK (UniProt Q969G6) shows 0.935 ± 0.033

Continued.

Target	NP40-soluble protein abundance (concentration: 1mM)	NP40-soluble protein abundance (concentration: 2mM)	NP40-soluble protein abundance (concentration: 4mM)	NP40-soluble protein abundance (concentration: 6mM)	NP40-soluble protein abundance (concentration: 8mM)	NP40-soluble protein abundance (concentration: 10mM)
EXOC4 (UniProt Q96A65)	0.996 ± 0.04	0.993 ± 0.043	0.981 ± 0.025	0.966 ± 0.049	0.935 ± 0.017	0.956 ± 0.023
PPP1R10 (UniProt Q96QC0)	1.05 ± 0.023	1.09 ± 0.016	1.08 ± 0.017	1.06 ± 0.059	1.06 ± 0.048	1.06 ± 0.034
UniProt Q96HA7 and related entries	1 ± 0.017	0.9846 ± 0.006	1.03 ± 0.024	1.01 ± 0.026	0.996 ± 0.031	1.01 ± 0.04
UniProt Q96CU9 and related entries	0.985 ± 0.033	0.91 ± 0.097	1.03 ± 0.06	1.04 ± 0.025	1.09 ± 0.028	1.07 ± 0.04
UniProt Q96GX9 and related entries	1 ± 0.034	0.988 ± 0.0058	0.998 ± 0.021	0.997 ± 0.015	1.03 ± 0.011	1 ± 0.033
DCPS (UniProt Q96C86)	0.973 ± 0.024	0.931 ± 0.047	0.949 ± 0.034	0.933 ± 0.0091	0.926 ± 0.035	0.911 ± 0.03
UniProt Q96BW9 and related entries	0.977 ± 0.045	0.948 ± 0.023	1 ± 0.026	1.02 ± 0.013	1.01 ± 0.013	0.985 ± 0.04
UniProt Q96BD8	0.979 ± 0.018	1.04 ± 0.016	0.981 ± 0.035	0.974 ± 0.028	0.988 ± 0.047	0.9505 ± 0.0082
UniProt Q96DA6 and related entries	0.997 ± 0.036	1 ± 0.025	1 ± 0.048	0.962 ± 0.043	0.996 ± 0.066	0.957 ± 0.035
UniProt Q96Q15 and related entries	0.967 ± 0.037	0.96 ± 0.03	1 ± 0.037	0.978 ± 0.048	0.968 ± 0.024	0.998 ± 0.082
UniProt Q96CS2	0.947 ± 0.07	1.04 ± 0.027	0.934 ± 0.079	0.875 ± 0.046	0.884 ± 0.014	0.829 ± 0.043
L3MBTL2 (UniProt Q969R5)	0.989 ± 0.014	1 ± 0.038	1.02 ± 0.029	0.991 ± 0.039	1.01 ± 0.017	0.987 ± 0.069
UniProt Q96K58 and related entries	1.1 ± 0.045	1.19 ± 0.044	1.11 ± 0.041	1.06 ± 0.065	1.03 ± 0.038	1.11 ± 0.061
EFHD2 (UniProt Q96C19)	0.991 ± 0.044	1.1 ± 0.2	0.989 ± 0.071	0.974 ± 0.03	0.939 ± 0.013	0.938 ± 0.066
UniProt Q96EH3	0.948 ± 0.028	0.937 ± 0.063	0.932 ± 0.027	0.971 ± 0.022	0.969 ± 0.011	0.95 ± 0.037
NSUN4 (UniProt Q96CB9)	0.93 ± 0.044	0.884 ± 0.035	0.97 ± 0.066	1.01 ± 0.12	1.1 ± 0.079	1.05 ± 0.018
UniProt Q96F44 and related entries	1.01 ± 0.023	1.02 ± 0.038	1.05 ± 0.02	0.992 ± 0.039	0.987 ± 0.044	1.01 ± 0.05
LPP (UniProt Q93052)	1.02 ± 0.024	1.03 ± 0.036	1.02 ± 0.028	0.986 ± 0.051	0.983 ± 0.035	0.964 ± 0.083
SUCLG2 (UniProt Q96I99)	1.03 ± 0.014	1 ± 0.019	1.01 ± 0.03	1.02 ± 0.043	1.01 ± 0.029	1.02 ± 0.04
UniProt Q93050 and related entries	0.988 ± 0.038	0.924 ± 0.098	0.958 ± 0.087	0.897 ± 0.079	0.903 ± 0.091	0.892 ± 0.1
